Data set [1] relates to Toxoplasma gondii RH-2F tachyzoites. The data set can be described thus: microbe, parasite or virus in culture. The following applies: 72 h, read-out: Parasite inhibition (%) mean.
In data set [2] the test system is human CYP isoforms. The following applies: ref S-inhibitor; cited from earlier work.

As for `O=C(c1ccc(F)cc1)N1CCC[C@H](c2nc(-c3ccc(F)cc3)no2)C1` [ADX-47273], in data set [1], the inhibition of growth at 5 µM worked out at 5%.
With `Nc1nc(N)c2nc(-c3cccc(O)c3)cnc2n1` [TG 100713], in data set [1], the inhibition of growth at 5 µM was 0.8%.
Take `C[C@@H]1C(SC2CN(C3=NCCS3)C2)=C(C(=O)OCOC(=O)C(C)(C)C)N2C(=O)[C@H]([C@@H](C)O)[C@H]12` [Tebipenem pivoxil (L-084)]: the inhibition of growth at 5 µM in data set [1] was determined as 15.4%. Moreover, in data set [2], the “IC50, human CYP isoforms” value is “Tebipenem pivoxil(L-084) is a novel oral carbapenem antibiotic with an IC50 of 100 μg/ml for human CYP isoforms”.

Source of the values: PMC7216583 (Parasites & Vectors, 2020).
